Data as given in PubChem BioAssay AID686937 (Drosophila RNAi Screening Center, 2013)
Screen: 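Knock-downs that reduce output of a secreted reporter enzyme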 (primary screen). System: Drosophila S2 cells expressing secreted horseradish peroxidase. Reagent: long dsRNA against Drosophila genes. Time to read-out: about 5.5 days (5 days dsRNA, then 12 h reporter induction). Conditions: reporter expression induced after 5 days of dsRNA, read 12 h later; inducer not stated. Measurement: 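After 5 days of dsRNA and 12 h of reporter induction, medium peroxidase read by chemiluminescence and scored as per-plate z-score; higher values mean more reporter released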. Direction: z-score: higher = more reporter secreted into medium.
The screen tested about 23,000 reagents; this is a random part of those that have a named target and a result. 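Reduced-secretion tags in replicate 1 do not always agree with the z-scores; no criterion for assigning the tags was given.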 A plus sign joins genes that one reagent is predicted to hit. Reagent sequences are not shown. Not stated in the record: the amount of reagent.

The opening 6 entries, to show the layout:
z-score, replicate 1	z-score, replicate 2	z-score, replicate 3	z-score, replicate 4	phenotype, replicate 1	Target gene	amplicon
-0.08	-0.06				qkr58E-1 (GeneID 37561)	DRSC04709
0.15	0.1				sona (GeneID 37762)	DRSC04089
-0.42	-0.15				sona (GeneID 37762)	DRSC04574
0.11	0.31				sona (GeneID 37762)	DRSC04575
0.54	0.22				CG6023 (GeneID 32814)	DRSC19970
-0.66	0.05				RNaseP:RNA (GeneID 3772418)	DRSC22967

Main list, from the first entry:
z-score, replicate 1	z-score, replicate 2	z-score, replicate 3	z-score, replicate 4	phenotype, replicate 1	Target gene	amplicon
-0.08	-0.06				qkr58E-1 (GeneID 37561)	DRSC04709
0.15	0.1				sona (GeneID 37762)	DRSC04089
-0.42	-0.15				sona (GeneID 37762)	DRSC04574
0.11	0.31				sona (GeneID 37762)	DRSC04575
0.54	0.22				CG6023 (GeneID 32814)	DRSC19970
-0.66	0.05				RNaseP:RNA (GeneID 3772418)	DRSC22967
0.27	0.26				PQBP1 (GeneID 43004)	DRSC14393
0.16	0.13				CG2681 (GeneID 31258)	DRSC18464
-0.97	-0.84				CR40354 (GeneID 10178779)	DRSC20923
-0.25	0.28				CG15109 (GeneID 37195)	DRSC06536
0.33	0.33				Dgp-1 (GeneID 37080)	DRSC07400
0.37	0.3				Phs (GeneID 39697)	DRSC10827
0.08	-0.02				CG8010 (GeneID 32921)	DRSC20072
0.49	0.3				qkr58E-2 (GeneID 37562)	DRSC04710
0.24	0.31				CG15386 + CG42371	DRSC00400
-0.23	0.16				Fur1 (GeneID 47220)	DRSC13707
-0.22	0				Fur1 (GeneID 47220)	DRSC16676
0.35	0.64				CG3014 (GeneID 40922)	DRSC15458
0.26	0.14				mil (GeneID 43343)	DRSC15696
0.4	0.27				CG9875 (GeneID 37698)	DRSC04585
-0.41	-0.32				Bx (GeneID 32846)	DRSC19350
-0.08	-1.05				Bx (GeneID 32846)	DRSC19624
-0.01	0.27				MICU3 (GeneID 42357)	DRSC13381
0.36	0.36				MICU3 (GeneID 42357)	DRSC15613
0.32	0.26				mRF1 (GeneID 34720)	DRSC02880
-0.19	0.03				CG3246 (GeneID 33564)	DRSC00584
0.37	0.33				CG12035 (GeneID 38217)	DRSC08238
0.2	0.6				CG9459 (GeneID 41213)	DRSC16496
0.08	-0.18				CG5715 (GeneID 42895)	DRSC15860
0.36	0.71				CG42813 (GeneID 43276)	DRSC15939
0.32	-0.16	0.39	0.32	reduced secretion	so (GeneID 35662)	DRSC07693
-0.68	-0.55				eRF3 (GeneID 34658)	DRSC03322
0.37	0.46				otk (GeneID 36283)	DRSC07658
0.53	0.55				CG15046 (GeneID 32833)	DRSC19622
0.25	0.36				CG5397 (GeneID 33313)	DRSC00683
0.41	0.26				CecA1 (GeneID 43596)	DRSC16603
-0.18	-0.61				Pka-C2 (GeneID 43644)	DRSC16790
0.38	0.78				CG11983 (GeneID 41081)	DRSC14458
0.18	0.26				Yp2 (GeneID 31938)	DRSC18732
0.26	0.39				CG4313 (GeneID 31169)	DRSC18514
0.17	0.32				asRNA:CR31514 + CG12947	DRSC14575
0.79	0.53				CG14968 (GeneID 38406)	DRSC08427
-1.79	0.1			reduced secretion	Sem1 (GeneID 50428)	DRSC02282
0.42	0.46				PK1-R (GeneID 41713)	DRSC16577
0.22	0.34				hts (GeneID 37230)	DRSC05791
0.07	0				epsilonCOP (GeneID 33908)	DRSC02003
0.2	0.39				CG9281 (GeneID 32508)	DRSC20179
-2.04	-1.13			reduced secretion	Sclp (GeneID 32156)	DRSC19851
-0.67	0.62				Dup99B (GeneID 2768691)	DRSC22877
0.66	0.52				CG42789 (GeneID 10178793)	DRSC13793
0.23	0.19				E2f2 (GeneID 35381)	DRSC03320
-0.23	-0.43				CG16782 (GeneID 31313)	DRSC18118
0.2	0.28				CG43072 (GeneID 12798436)	DRSC11688
0.16	0.24				RhoBTB (GeneID 40249)	DRSC11877
0.36	-0.16				obst-F (GeneID 40209)	DRSC10805
0.32	0.29				Ufsp2 (GeneID 39687)	DRSC10231
